Test results: article PMC10279700, “Structural insights into regulation of the PEAK3 pseudokinase scaffold by 14-3-3” (Nature Communications, 2023)

Assays:
Assay in all cases: co-IP; FLAG-tagged PEAK3 variants transiently expressed in HEK293; anti-FLAG/protein A beads overnight at 4 °C; endogenous 14-3-3 detected with anti-pan 14-3-3 by Western blot; also after 1 h of 0.1% DMSO or PKD inhibitors CRT0066101 or CID755673 (dose-dependent decrease, not abolished)
[1] = target: T1, FLAG-tagged PEAK3 S69A (human) (UniProt Q6ZS72)
T1 sequence: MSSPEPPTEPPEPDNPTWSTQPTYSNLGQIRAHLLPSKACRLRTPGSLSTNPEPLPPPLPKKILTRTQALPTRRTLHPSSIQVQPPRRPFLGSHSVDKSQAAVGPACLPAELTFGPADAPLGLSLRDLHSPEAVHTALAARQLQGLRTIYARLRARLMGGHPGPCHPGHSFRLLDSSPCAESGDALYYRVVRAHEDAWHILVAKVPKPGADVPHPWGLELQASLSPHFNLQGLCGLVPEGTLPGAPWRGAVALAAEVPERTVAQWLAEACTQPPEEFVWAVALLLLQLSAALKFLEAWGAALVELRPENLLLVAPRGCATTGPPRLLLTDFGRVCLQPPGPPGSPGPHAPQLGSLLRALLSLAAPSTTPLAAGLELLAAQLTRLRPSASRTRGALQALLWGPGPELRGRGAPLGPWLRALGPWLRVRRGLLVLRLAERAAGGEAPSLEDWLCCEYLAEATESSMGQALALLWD

[2] = target: T2, FLAG-tagged PEAK3 K293A (human) (UniProt Q6ZS72)
T2 sequence: T1 sequence with A69S, K293A

[3] = target: T3, FLAG-tagged PEAK3 K293A/W298A (human) (UniProt Q6ZS72)
T3 sequence: T1 sequence with A69S, K293A, W298A

[4] = target: T4, FLAG-tagged PEAK3 W298A (human) (UniProt Q6ZS72)
T4 sequence: T1 sequence with A69S, W298A

[5] = target: T5, FLAG-tagged PEAK3 S69E (human) (UniProt Q6ZS72)
T5 sequence: T1 sequence with A69E

[6] = target: T6, FLAG-tagged PEAK3 S225A (human) (UniProt Q6ZS72)
T6 sequence: T1 sequence with A69S, S225A

## endogenous 14-3-3 (human (endogenous in HEK293))
[1]
  binding: no binding
[2]
  binding: binds
[3]
  binding: binds
[4]
  binding: binds
[5]
  binding: no binding
[6]
  binding: binds

Changes are numbered by the printed parent chain. Results are given in words; binding and its absence hold for the method and conditions named. Binding seen in cells or lysates may run through a third protein. For part of these data: A result given as binding can be weak or reduced; the word gives no strength. Where a sequence is shown, tags or fusion partners need not be part of it.
